Results are given in words; binding and its absence hold for the method and conditions named. Binding seen in cells or lysates may run through a third protein. Some entries that bind do so weakly or less than the wild type.
Target: p62 (mouse (endogenous in HT22)) (UniProt Q64337)
Experiment: co-IP; total lysates of HT22 cells immunoprecipitated with p62 antibody or IgG control overnight at 4 °C, protein A/G plus agarose, western blot; cells with or without CoCl2 and GAS (GAS reduced the binding)

Protein sequences, listed by entry. Tags and fused reporters are not part of them.
UniProt P11798: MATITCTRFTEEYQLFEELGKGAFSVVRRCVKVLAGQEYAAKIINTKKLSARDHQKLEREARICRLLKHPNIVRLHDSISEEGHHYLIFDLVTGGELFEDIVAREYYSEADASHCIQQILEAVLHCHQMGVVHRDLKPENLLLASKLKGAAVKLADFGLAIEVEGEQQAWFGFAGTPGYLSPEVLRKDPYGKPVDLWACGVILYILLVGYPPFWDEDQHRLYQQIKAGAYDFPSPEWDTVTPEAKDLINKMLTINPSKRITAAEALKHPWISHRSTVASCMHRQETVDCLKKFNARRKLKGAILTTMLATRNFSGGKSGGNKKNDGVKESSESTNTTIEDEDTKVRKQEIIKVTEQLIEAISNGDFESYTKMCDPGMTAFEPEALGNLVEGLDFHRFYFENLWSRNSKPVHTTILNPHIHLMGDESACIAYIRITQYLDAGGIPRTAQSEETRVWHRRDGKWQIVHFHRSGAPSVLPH

- binding: binds
Substance: CaMKIIα (Ca2+-calmodulin stimulated protein kinase II alpha) (from UniProt P11798 1-478) (enzyme)
